Our source for the binding values is PMC10663520, “Qa-SNARE syntaxin 18 mediates lipid droplet fusion with SNAP23 and SEC22B” (Cell Discovery, 2023).

Sequences of proteins named here, by UniProt entry; tags and fusion partners are left off.
UniProt O75396: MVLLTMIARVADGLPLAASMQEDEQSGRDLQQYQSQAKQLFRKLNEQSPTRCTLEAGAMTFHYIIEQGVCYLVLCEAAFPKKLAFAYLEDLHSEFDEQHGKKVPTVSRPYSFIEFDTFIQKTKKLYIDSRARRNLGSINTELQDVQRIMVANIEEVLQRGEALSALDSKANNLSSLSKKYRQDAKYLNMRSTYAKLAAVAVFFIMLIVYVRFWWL
UniProt O00161: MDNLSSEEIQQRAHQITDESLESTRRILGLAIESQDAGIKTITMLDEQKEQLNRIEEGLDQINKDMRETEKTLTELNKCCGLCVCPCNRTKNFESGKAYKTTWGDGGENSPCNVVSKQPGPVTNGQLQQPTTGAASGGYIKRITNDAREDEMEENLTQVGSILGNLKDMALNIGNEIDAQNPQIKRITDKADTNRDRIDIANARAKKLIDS

Assay [1] concerns the target T1, Flag-STX18 (bait of the IP-MS) (UniProt Q9P2W9).
T1 sequence: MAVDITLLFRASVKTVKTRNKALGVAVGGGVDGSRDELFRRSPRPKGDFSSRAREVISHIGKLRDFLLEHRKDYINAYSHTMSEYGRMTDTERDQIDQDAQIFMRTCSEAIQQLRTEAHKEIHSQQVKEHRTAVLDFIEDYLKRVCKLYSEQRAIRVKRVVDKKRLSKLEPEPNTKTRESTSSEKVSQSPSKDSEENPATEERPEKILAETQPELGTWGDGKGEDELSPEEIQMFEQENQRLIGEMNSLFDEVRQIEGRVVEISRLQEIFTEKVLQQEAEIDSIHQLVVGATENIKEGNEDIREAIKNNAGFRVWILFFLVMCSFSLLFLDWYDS
The experiment in a line: affinity purification with mass spectrometry; IP-MS of Flag-STX18; cells not given.

Assay [2] addresses ZZ-Flag-SEC22B (UniProt O75396). The experiment in a line: affinity purification with mass spectrometry; tandem affinity purification (TAP-MS) of ZZ-Flag-SEC22B.

Results are given in words; binding and its absence hold for the method and conditions named. Binding seen in cells or lysates may run through a third protein. A yes stands for co-enrichment or nearness to the bait. Other partners may have been found. Tags and fused reporters may be left off the sequences shown.

Turning to “SEC22B (found in the IP-MS of Flag-STX18) (from UniProt O75396 1-215)”, in assay [1], the binding entry is given as “binds”.
The same measure, in the same setting: as for “SNAP23 (found in the IP-MS of Flag-STX18) (from UniProt O00161 1-211)”, the entry is “binds”.
On to “SNAP23 (found in the TAP-MS of ZZ-Flag-SEC22B) (from UniProt O00161 1-211)”, for which the binding entry in assay [2] is given as “binds”.

B1: STX18 (found in the TAP-MS of ZZ-Flag-SEC22B) (protein, UniProt Q9P2W9 1-335)
chain: MAVDITLLFRASVKTVKTRNKALGVAVGGGVDGSRDELFRRSPRPKGDFSSRAREVISHIGKLRDFLLEHRKDYINAYSHTMSEYGRMTDTERDQIDQDAQIFMRTCSEAIQQLRTEAHKEIHSQQVKEHRTAVLDFIEDYLKRVCKLYSEQRAIRVKRVVDKKRLSKLEPEPNTKTRESTSSEKVSQSPSKDSEENPATEERPEKILAETQPELGTWGDGKGEDELSPEEIQMFEQENQRLIGEMNSLFDEVRQIEGRVVEISRLQEIFTEKVLQQEAEIDSIHQLVVGATENIKEGNEDIREAIKNNAGFRVWILFFLVMCSFSLLFLDWYDS
B1: the binding entry in assay [2] was “binds”.
